Assay results as given in paper PMC5085165.
These are yes or no findings as the source states them, for the method shown. In cells and extracts the contact can be indirect. Some results given as binding are weak or reduced against the parent protein; the word gives no strength.

Target: p62 (mouse (endogenous in MEFs)) (UniProt Q64337)
Test: co-IP; WT MEFs lysed, immunoprecipitated with an anti-p62 antibody or control IgG, Western blot with an anti-GEF-H1 antibody; also after starvation-induced autophagy (interaction increased)

B1: GEF-H1 (protein, UniProt Q60875 1-985)
chain: MSRIESLTRARIDRSKEQATKTREKEKMKEAKDARYTNGHLFTTISVSGMTMCYACNKSITAKEALICPTCNVTIHNRCKDTLANCTKVKQKQQKAALLRNNTALQSVSLRSKTTTRERPTSAIYPSDSFRQSLLGSRRGLSSLSLAKSVSTTNIAGHFNDESPLGLRQILSQSTDSLNMRNRTLSVESLIDEGVEVFYNELMSDFEMDEKDFEADSWSLAVDSSFLQQHKKEVMKKQDVIYELIQTELHHVRTLKIMTRLFRTGMLEELQMEPEVVQGLFPCVDELSDIHTRFLNQLLERRRQALCPGSTRNFVIHRLGDLLISQFSGSNAEQMRKTYSEFCSRHTKALKLYKELYARDKRFQQFIRKMTRSAVLKRHGVQECILLVTQRITKYPVLINRILQNSHGVEEEYQDLASALGLVKELLSNVDQDVHELEKEARLQEIYNRMDPRAQTPVPGKGPFGRDELLRRKLIHEGCLLWKTATGRFKDVLLLLMTDVLVFLQEKDQKYIFTSLDKPSVVSLQNLIVRDIANQAKGMFLISSGPPEMYEVHAASRDDRTTWIRVIQQSVRLCPSREDFPLIETEDKAYLRRIKTKLQQKNQALVELLQKNVELFAEMVHFQALKAGFVGMPPPALPRGLFRLESFESLRGERLLKDALREVEGLKDLLLGPCVDLPMTSREPALPLDSDSGSCPGVTANGEARTFNGSIELCRADSDSSQKDRNGNQLRSPQEEVLQPLINLYGLLHGLQAVVVQQERLMEALFPEGPERWEKLSRANSRDGEAGRAAVASVTPEKQATELALLQRQHTLLQEELRRCQRLGEERATEAGSLEARLRESEQARALLEREAEEIRRQLAALGQNEPLPAEAPWARRPLDPRRRSLPAGDALYLSFNPPQPSRGHDRLDLPVTVRSLHRPFDDREAQELGSPEDRLQDSSDPDTGSEEEVSSRLSPPHSPRDFTRMQDIPEETESRDGEPTASES
binding: binds
